Data taken from the supplement of paper PMC10849652.
The list shows a part of the results.

By UniProt entry, the sequences of proteins in these tests, tags left out. Where a name states a change or a piece, a line headed by the entry shows the natural chain unless it says otherwise.
UniProt Q9BXW7: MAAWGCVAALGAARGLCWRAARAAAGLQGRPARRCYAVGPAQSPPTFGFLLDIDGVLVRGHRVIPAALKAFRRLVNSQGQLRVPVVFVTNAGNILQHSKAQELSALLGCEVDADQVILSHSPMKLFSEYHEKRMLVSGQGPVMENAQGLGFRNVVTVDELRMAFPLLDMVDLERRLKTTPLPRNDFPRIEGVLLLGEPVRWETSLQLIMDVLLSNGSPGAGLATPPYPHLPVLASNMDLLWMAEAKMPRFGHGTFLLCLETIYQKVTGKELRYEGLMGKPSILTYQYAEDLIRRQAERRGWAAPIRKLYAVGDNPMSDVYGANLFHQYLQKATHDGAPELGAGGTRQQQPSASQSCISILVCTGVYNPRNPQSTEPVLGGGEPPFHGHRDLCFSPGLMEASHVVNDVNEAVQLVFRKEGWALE
UniProt Q7Z4H7: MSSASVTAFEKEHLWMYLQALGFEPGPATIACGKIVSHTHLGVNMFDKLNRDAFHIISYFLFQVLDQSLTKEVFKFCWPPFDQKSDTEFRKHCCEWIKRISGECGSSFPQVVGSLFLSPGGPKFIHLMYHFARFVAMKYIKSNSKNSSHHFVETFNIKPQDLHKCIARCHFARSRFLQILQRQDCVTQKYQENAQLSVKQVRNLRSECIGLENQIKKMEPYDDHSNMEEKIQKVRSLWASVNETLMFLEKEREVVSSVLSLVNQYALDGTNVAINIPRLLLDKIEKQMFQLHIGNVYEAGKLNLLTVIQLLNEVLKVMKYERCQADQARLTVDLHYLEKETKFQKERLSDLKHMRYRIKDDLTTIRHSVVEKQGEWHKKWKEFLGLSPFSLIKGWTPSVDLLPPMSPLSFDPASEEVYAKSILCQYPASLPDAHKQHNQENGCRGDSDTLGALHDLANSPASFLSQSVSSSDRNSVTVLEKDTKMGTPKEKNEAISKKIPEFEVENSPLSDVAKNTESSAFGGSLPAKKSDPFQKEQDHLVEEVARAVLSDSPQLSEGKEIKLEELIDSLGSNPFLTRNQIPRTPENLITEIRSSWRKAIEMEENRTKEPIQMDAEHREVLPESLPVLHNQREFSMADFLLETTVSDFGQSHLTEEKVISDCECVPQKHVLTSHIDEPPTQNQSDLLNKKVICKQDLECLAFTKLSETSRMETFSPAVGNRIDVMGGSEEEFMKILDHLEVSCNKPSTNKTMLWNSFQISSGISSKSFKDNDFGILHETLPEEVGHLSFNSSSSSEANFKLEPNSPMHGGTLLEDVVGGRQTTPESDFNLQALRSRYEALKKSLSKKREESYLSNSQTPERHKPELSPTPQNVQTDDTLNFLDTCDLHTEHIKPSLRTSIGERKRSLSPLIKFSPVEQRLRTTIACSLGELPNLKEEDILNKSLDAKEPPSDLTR
UniProt Q9Y2Q3: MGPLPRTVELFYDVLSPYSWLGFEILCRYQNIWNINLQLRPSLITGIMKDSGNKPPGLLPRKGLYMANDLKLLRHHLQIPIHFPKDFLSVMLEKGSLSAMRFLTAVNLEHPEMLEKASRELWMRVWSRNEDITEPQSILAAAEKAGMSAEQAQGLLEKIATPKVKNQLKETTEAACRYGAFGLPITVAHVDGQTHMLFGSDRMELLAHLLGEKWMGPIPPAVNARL
UniProt Q9UKN8: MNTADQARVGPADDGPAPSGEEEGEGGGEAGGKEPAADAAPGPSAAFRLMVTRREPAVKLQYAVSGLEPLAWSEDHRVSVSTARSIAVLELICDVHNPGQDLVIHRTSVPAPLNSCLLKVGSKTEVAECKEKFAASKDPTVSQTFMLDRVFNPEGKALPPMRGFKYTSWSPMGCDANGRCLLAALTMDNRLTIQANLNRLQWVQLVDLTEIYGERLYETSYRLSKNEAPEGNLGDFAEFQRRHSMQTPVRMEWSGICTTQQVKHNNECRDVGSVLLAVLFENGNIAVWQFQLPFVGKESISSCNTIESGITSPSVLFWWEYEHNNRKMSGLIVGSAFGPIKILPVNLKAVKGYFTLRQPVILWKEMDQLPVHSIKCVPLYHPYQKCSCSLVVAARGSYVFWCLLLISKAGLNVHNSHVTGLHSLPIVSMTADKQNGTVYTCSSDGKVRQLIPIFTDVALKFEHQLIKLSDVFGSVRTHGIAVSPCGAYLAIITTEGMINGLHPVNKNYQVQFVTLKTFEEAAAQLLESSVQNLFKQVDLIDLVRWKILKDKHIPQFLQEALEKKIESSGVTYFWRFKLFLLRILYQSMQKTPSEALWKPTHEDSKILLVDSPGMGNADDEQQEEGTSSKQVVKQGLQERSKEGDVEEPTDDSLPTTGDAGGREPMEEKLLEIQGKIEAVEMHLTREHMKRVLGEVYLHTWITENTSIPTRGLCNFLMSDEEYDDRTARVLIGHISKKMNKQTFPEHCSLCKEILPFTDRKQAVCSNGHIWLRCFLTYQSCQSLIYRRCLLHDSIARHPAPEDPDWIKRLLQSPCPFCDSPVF
UniProt P46439: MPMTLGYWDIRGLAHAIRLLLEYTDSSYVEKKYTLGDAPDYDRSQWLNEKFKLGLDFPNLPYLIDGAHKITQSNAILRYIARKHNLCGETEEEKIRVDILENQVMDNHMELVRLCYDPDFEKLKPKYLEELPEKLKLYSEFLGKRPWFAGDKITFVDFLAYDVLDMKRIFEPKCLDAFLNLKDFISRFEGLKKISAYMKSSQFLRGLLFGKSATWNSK
UniProt Q9P2D3: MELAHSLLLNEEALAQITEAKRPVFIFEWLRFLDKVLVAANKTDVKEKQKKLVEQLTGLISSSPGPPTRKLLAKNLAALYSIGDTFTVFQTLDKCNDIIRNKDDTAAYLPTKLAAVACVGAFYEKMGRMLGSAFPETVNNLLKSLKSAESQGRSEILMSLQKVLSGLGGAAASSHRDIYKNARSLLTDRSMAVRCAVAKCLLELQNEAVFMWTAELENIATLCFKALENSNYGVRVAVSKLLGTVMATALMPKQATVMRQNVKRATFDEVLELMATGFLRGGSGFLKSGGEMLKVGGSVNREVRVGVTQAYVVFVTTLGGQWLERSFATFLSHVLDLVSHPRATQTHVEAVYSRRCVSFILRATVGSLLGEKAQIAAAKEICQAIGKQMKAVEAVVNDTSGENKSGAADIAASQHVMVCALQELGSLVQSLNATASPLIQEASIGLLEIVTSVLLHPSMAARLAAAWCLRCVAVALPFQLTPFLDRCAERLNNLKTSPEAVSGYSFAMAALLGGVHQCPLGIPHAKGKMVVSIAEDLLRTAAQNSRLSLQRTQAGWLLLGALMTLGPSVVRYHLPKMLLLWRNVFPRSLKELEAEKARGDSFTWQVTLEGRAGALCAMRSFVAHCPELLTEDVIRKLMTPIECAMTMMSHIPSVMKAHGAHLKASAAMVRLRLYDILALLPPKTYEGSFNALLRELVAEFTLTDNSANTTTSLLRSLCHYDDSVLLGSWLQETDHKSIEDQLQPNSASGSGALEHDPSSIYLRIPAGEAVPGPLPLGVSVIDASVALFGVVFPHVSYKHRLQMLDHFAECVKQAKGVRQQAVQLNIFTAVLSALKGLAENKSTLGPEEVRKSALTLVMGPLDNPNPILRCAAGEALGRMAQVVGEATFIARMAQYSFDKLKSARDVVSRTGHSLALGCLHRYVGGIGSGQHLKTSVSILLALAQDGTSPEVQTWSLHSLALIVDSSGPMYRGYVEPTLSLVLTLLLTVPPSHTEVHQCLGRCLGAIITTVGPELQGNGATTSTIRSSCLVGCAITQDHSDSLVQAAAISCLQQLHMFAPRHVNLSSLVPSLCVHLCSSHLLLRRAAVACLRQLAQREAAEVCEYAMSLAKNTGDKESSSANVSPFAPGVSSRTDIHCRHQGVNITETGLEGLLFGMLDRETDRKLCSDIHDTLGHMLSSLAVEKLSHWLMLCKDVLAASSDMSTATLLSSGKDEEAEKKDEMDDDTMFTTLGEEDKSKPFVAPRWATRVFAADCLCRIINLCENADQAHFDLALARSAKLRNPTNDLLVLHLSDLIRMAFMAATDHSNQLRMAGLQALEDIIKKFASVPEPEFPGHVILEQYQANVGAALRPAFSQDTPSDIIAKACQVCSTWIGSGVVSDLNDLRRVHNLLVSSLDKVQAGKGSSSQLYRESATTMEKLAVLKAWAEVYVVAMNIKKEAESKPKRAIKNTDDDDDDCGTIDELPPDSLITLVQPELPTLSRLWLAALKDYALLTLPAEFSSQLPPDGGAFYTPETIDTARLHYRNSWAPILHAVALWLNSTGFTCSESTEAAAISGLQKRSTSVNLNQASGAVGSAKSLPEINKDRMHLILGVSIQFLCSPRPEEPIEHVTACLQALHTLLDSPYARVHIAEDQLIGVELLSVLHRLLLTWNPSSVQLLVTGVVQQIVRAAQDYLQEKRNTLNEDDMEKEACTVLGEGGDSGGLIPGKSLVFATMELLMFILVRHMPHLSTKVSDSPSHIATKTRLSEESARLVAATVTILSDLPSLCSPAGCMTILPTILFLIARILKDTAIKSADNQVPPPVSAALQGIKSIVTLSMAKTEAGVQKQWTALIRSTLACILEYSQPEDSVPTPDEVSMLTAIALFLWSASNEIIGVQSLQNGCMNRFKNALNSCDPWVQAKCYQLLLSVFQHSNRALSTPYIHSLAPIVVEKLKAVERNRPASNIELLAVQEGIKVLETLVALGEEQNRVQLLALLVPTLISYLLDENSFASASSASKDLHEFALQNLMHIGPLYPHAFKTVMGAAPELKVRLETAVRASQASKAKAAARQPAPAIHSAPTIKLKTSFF
UniProt P56524: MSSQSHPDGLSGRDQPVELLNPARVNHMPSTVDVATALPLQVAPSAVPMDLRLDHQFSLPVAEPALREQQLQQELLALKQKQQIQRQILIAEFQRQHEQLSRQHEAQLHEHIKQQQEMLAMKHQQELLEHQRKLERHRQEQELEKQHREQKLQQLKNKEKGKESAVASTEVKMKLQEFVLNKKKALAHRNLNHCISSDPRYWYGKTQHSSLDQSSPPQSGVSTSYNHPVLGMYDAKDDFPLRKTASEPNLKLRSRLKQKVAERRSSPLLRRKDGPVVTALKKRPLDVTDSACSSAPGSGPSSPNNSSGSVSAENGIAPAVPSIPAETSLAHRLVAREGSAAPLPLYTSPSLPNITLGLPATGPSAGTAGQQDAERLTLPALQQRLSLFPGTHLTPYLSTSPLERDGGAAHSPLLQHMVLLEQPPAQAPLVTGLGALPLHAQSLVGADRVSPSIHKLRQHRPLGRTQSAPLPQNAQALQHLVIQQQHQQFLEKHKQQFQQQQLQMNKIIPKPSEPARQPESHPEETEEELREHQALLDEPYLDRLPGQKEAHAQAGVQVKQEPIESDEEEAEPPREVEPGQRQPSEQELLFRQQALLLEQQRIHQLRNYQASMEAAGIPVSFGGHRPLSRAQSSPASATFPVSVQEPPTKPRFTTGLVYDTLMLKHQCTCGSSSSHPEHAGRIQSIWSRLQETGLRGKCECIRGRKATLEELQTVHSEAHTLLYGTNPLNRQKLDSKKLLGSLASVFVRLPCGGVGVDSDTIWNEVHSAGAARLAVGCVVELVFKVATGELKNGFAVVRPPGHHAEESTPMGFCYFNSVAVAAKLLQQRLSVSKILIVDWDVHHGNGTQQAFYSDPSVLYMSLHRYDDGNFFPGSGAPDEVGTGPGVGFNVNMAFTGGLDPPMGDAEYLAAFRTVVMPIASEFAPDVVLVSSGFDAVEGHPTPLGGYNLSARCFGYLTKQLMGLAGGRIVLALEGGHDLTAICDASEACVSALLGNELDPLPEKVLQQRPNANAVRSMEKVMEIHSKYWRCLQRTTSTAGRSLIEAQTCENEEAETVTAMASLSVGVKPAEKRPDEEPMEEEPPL
UniProt P09211: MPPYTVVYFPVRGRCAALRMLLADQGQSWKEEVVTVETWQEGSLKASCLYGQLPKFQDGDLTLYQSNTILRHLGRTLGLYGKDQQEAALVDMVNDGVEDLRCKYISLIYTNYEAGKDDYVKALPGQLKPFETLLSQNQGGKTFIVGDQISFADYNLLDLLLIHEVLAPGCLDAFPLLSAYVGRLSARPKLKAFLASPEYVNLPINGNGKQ
UniProt P06865: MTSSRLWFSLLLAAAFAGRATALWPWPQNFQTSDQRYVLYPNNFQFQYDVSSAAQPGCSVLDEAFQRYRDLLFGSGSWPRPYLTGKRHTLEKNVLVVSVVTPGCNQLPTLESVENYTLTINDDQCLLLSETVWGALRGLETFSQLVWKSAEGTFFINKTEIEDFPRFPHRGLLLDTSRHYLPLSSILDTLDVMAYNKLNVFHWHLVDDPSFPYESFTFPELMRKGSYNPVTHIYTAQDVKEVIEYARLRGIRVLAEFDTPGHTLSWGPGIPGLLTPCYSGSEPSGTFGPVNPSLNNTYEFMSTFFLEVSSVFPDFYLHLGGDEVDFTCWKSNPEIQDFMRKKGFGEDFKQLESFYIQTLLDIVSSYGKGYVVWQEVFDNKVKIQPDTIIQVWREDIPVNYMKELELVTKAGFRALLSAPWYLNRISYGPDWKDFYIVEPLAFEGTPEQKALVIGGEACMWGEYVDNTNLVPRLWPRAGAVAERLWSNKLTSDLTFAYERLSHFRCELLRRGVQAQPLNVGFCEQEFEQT

Legend:
Test in all cases: log2 fold change, soluble protein after heating vs DMSO (PISA); higher = thermal stabilisation; K562 cells, 10 uM, 30 min; active = over 0.2 and 3.5 SD of the protein, either way, in both replicates (recomputed)
[1] = compound: CS(=O)(=O)c1ccc(-c2cnc(N)c(C(=O)Nc3ccccc3)n2)cc1
Outline: (§1)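 K562 cells at 2×10^6 cells/mL were treated with 10 μM compound for 30 min. Aliquots were heated for 3 min across 48°C-58°C, pooled, and extracted in PBS with 0.5% NP-40 at 4°C; soluble protein was the supernatant after 21,000xg for 90 min. Soluble protein was quantified by TMTpro 16plex LC-MS/MS with channel sums equalised, and reported as log2 fold change in thermal stability against DMSO controls, with values from duplicates.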

crizotinib = compound: C[C@@H](Oc1cc(-c2cnn(C3CCNCC3)c2)cnc1N)c1c(Cl)ccc(F)c1Cl [crizotinib]
Outline: as §1

[2] = compound: C[C@@H]1COCCN1C2=NC(=NC(=C2)C3(CC3)S(=O)(=O)C)C4=C5C=CNC5=CC=C4
Outline: as §1

[3] = compound: C[C@H](C1=CC=C(C=C1)C(=O)NC2=C3C=CNC3=NC=C2)N
Outline: as §1

duvelisib = compound: C[C@H](Nc1ncnc2nc[nH]c12)c1cc2cccc(Cl)c2c(=O)n1-c1ccccc1 [duvelisib]
Outline: as §1

gandotinib = compound: Cc1cc(Nc2cc(CN3CCOCC3)c3nc(C)c(Cc4ccc(Cl)cc4F)n3n2)n[nH]1 [gandotinib]
Outline: as §1

tozasertib = compound: Cc1cc(Nc2cc(N3CCN(C)CC3)nc(Sc3ccc(NC(=O)C4CC4)cc3)n2)n[nH]1 [tozasertib]
Outline: as §1

[4] = compound: Cc1cc(SCc2sc(-c3ccc(C(F)(F)F)cc3)nc2C)ccc1OCC(=O)O
Outline: as §1

doramapimod = compound: Cc1ccc(-n2nc(C(C)(C)C)cc2NC(=O)Nc2ccc(OCCN3CCOCC3)c3ccccc23)cc1 [doramapimod]
Outline: as §1

ispinesib = compound: Cc1ccc(C(=O)N(CCCN)[C@@H](c2nc3cc(Cl)ccc3c(=O)n2Cc2ccccc2)C(C)C)cc1 [ispinesib]
Outline: as §1

bafetinib = compound: Cc1ccc(NC(=O)c2ccc(CN3CC[C@H](N(C)C)C3)c(C(F)(F)F)c2)cc1Nc1nccc(-c2cncnc2)n1 [bafetinib]
Outline: as §1

[5] = compound: Cc1cccc(CC(=O)N2CCc3c2ccc(-c2cn(C)c4ncnc(N)c24)c3F)n1
Outline: as §1

nilotinib = compound: Cc1cn(-c2cc(NC(=O)c3ccc(C)c(Nc4nccc(-c5cccnc5)n4)c3)cc(C(F)(F)F)c2)cn1 [nilotinib]
Outline: as §1

[6] = compound: Cc1nc(Nc2n[nH]c3c2CN(C(=O)N[C@H](CN(C)C)c2ccccc2)C3(C)C)c2sccc2n1
Outline: as §1

dasatinib = compound: Cc1nc(Nc2ncc(C(=O)Nc3c(C)cccc3Cl)s2)cc(N2CCN(CCO)CC2)n1 [dasatinib]
Outline: as §1

[7] = compound: Cc1ncc(-c2ccnc(Nc3ccc(S(C)(=O)=O)cc3)n2)n1C(C)C
Outline: as §1

[8] = compound: Cn1cc(-c2ccc3c(c2)CCN3C(=O)Cc2cccc(C(F)(F)F)c2)c2c(N)ncnc21
Outline: as §1

[9] = compound: Cn1cc(-c2ccc3nnc(C(F)(F)c4ccc5ncccc5c4)n3n2)cn1
Outline: as §1

tipifarnib = compound: Cn1cncc1[C@@](N)(c1ccc(Cl)cc1)c1ccc2c(c1)c(-c1cccc(Cl)c1)cc(=O)n2C [tipifarnib]
Outline: as §1

mubritinib = compound: FC(F)(F)c1ccc(/C=C/c2nc(COc3ccc(CCCCn4ccnn4)cc3)co2)cc1 [mubritinib]
Outline: as §1

Row | Target | log2 fold change [1] | log2 fold change (crizotinib) | log2 fold change [2] | log2 fold change [3] | log2 fold change (duvelisib) | log2 fold change (gandotinib) | log2 fold change (tozasertib) | log2 fold change [4] | log2 fold change (doramapimod) | log2 fold change (ispinesib) | log2 fold change (bafetinib) | log2 fold change [5] | log2 fold change (nilotinib) | log2 fold change [6] | log2 fold change (dasatinib) | log2 fold change [7] | log2 fold change [8] | log2 fold change [9] | log2 fold change (tipifarnib) | log2 fold change (mubritinib)
1 | HDHD5 (UniProt Q9BXW7) | inactive: 0.023 | inactive: -0.02 | inactive: -0.075 | inactive: 0.019 | inactive: 0.126 | inactive: 0.068 | inactive: -0.03 | inactive: 0.086 | inactive: -0.008 | inactive: 0.019 | inactive: 0.029 | inactive: 0.004 | inactive: -0.043 | inactive: -0.088 | inactive: -0.172 | inactive: -0.012 | inactive: 0.07 | inactive: 0.064 | inactive: -0.127 | inactive: -0.143
2 | HAGHL (UniProt Q6PII5) | inactive: -0.103 | inactive: -0.124 | inactive: 0.07 | inactive: 0.021 | inactive: 0.028 | – | inactive: 0.054 | inactive: 0.078 | inactive: 0.073 | inactive: -0.014 | inactive: -0.204 | – | – | – | inactive: 0.116 | – | inactive: -0.012 | inactive: -0.104 | inactive: 0.02 | inactive: 0.017
3 | HBZ (UniProt P02008) | inactive: 0.017 | inactive: 0.09 | inactive: 0.174 | inactive: -0.067 | – | inactive: 0.084 | – | inactive: 0.014 | inactive: -0.005 | inactive: 0.21 | inactive: -0.013 | inactive: 0.037 | inactive: 0.018 | inactive: 0.011 | inactive: 0.073 | inactive: -0.008 | inactive: 0.137 | inactive: 0.282 | inactive: -0.183 | inactive: 0.049
4 | H1-5 (UniProt P16401) | inactive: 0.013 | inactive: 0.068 | inactive: -0.521 | inactive: 0.355 | inactive: -0.179 | inactive: 0.26 | inactive: -0.048 | inactive: 0.012 | inactive: 0.226 | inactive: -0.15 | inactive: 0.333 | inactive: -0.063 | inactive: 0.05 | inactive: 0.049 | inactive: 0.178 | inactive: -0.105 | inactive: -0.322 | inactive: -0.131 | inactive: 0.094 | inactive: -0.134
5 | HAUS6 (UniProt Q7Z4H7) | inactive: -0.018 | inactive: -0.104 | inactive: -0.116 | inactive: 0.309 | inactive: -0.074 | – | inactive: 0.135 | inactive: 0.104 | inactive: 0.198 | inactive: -0.273 | inactive: 0.018 | – | inactive: -0.058 | inactive: -0.103 | inactive: 0.001 | inactive: -0.023 | inactive: -0.311 | inactive: -0.011 | inactive: -0.087 | inactive: -0.019
6 | HDHD3 (UniProt Q9BSH5) | inactive: 0.017 | inactive: 0.036 | inactive: 0.137 | inactive: 0.001 | inactive: 0.048 | inactive: 0.013 | inactive: 0.007 | inactive: 0.003 | inactive: -0.027 | inactive: 0.009 | inactive: -0.048 | inactive: 0.076 | inactive: -0.031 | inactive: 0.02 | inactive: 0.094 | inactive: -0.052 | inactive: 0.059 | inactive: 0.068 | inactive: 0.011 | inactive: 0.007
7 | GSTK1 (UniProt Q9Y2Q3) | inactive: 0.02 | inactive: 0.116 | inactive: 0.151 | inactive: -0.02 | inactive: 0.06 | inactive: -0.033 | inactive: -0.01 | inactive: 0.036 | inactive: 0.031 | inactive: 0.177 | inactive: 0.023 | inactive: 0.018 | inactive: -0.008 | inactive: -0.018 | inactive: -0.051 | inactive: 0.013 | inactive: 0.118 | inactive: 0.047 | inactive: -0.015 | inactive: 0.055
8 | GTF3C5 isoform 3 (UniProt Q9Y5Q8) | inactive: 0.01 | inactive: 0.17 | inactive: 0.016 | inactive: 0.158 | – | inactive: 0.043 | – | inactive: 0.034 | inactive: 0.095 | inactive: -0.248 | inactive: 0.028 | inactive: -0.013 | inactive: -0.04 | inactive: -0.167 | inactive: -0.269 | inactive: -0.137 | inactive: 0.027 | inactive: -0.063 | inactive: 0.01 | inactive: 0.065
9 | HDAC2 (UniProt Q92769) | inactive: -0.01 | inactive: 0.08 | inactive: -0.02 | inactive: -0.046 | – | inactive: 0.003 | – | inactive: -0.029 | inactive: 0.011 | inactive: 0.072 | inactive: 0.137 | inactive: -0.046 | inactive: -0.01 | inactive: 0.009 | inactive: 0.007 | inactive: -0.002 | inactive: -0.01 | inactive: -0.001 | inactive: 0.027 | inactive: 0.015
10 | GTF3C4 (UniProt Q9UKN8) | inactive: -0.011 | inactive: 0.078 | inactive: 0.04 | inactive: -0.015 | – | inactive: -0.05 | – | inactive: -0.063 | inactive: -0.019 | inactive: 0.06 | inactive: -0.065 | inactive: 0.019 | inactive: -0.034 | inactive: -0.069 | inactive: -0.024 | inactive: 0.036 | inactive: -0.017 | inactive: -0.007 | inactive: 0.014 | inactive: 0.01
11 | GSTM5 (UniProt P46439) | inactive: -0.224 | inactive: -0.054 | inactive: 0.028 | inactive: -0.074 | inactive: 0.077 | inactive: 0.124 | inactive: -0.083 | inactive: 0.072 | inactive: 0.249 | – | inactive: 0.016 | inactive: 0.003 | inactive: -0.071 | inactive: 0.042 | inactive: -0.005 | inactive: 0.082 | inactive: 0.025 | – | inactive: -0.008 | inactive: -0.062
12 | HEATR5B (UniProt Q9P2D3) | inactive: 0.055 | inactive: -0.058 | inactive: -0.11 | inactive: 0.103 | – | inactive: -0.039 | – | inactive: 0.036 | inactive: -0.015 | inactive: -0.021 | inactive: -0.007 | inactive: 0.014 | inactive: -0.049 | inactive: -0.066 | inactive: -0.119 | inactive: 0.072 | inactive: -0.029 | inactive: -0.012 | inactive: -0.052 | inactive: 0.034
13 | HDAC4 (UniProt P56524) | inactive: -0.025 | inactive: -0.061 | inactive: 0.005 | inactive: 0.298 | – | inactive: -0.298 | inactive: -0.027 | – | inactive: 0.029 | inactive: 0.196 | inactive: 0.032 | inactive: 0.066 | inactive: 0.179 | inactive: -0.101 | – | inactive: -0.03 | inactive: -0.183 | inactive: 0.196 | inactive: 0.044 | inactive: 0.036
14 | GYS1 (UniProt P13807) | inactive: 0.017 | inactive: -0.097 | inactive: -0.187 | inactive: 0.311 | – | inactive: -0.015 | – | inactive: 0.184 | inactive: 0.271 | inactive: -0.231 | inactive: 0.107 | inactive: 0.011 | inactive: 0.237 | inactive: -0.18 | inactive: 0.172 | inactive: -0.036 | inactive: -0.266 | inactive: -0.139 | inactive: 0.147 | inactive: 0.001
15 | GSTP1 (UniProt P09211) | inactive: 0.023 | inactive: 0.038 | inactive: 0.033 | inactive: -0.067 | – | inactive: -0.005 | – | inactive: 0 | inactive: -0.019 | inactive: 0.058 | inactive: -0.061 | inactive: -0.021 | inactive: -0.018 | inactive: -0.017 | inactive: -0.014 | inactive: 0.007 | inactive: 0.032 | inactive: 0.038 | inactive: -0.007 | inactive: 0.038
16 | HEXA (UniProt P06865) | inactive: 0.016 | active: -0.785 | inactive: 0.02 | inactive: -0.015 | – | inactive: 0.015 | – | inactive: -0.02 | inactive: -0.016 | inactive: -0.124 | active: -0.491 | inactive: -0.023 | inactive: -0.001 | inactive: 0.017 | inactive: 0.016 | inactive: -0.036 | inactive: -0.003 | inactive: 0.006 | inactive: 0.044 | inactive: 0.023
17 | H6PD (UniProt O95479) | inactive: -0.117 | – | inactive: -0.043 | inactive: 0.095 | inactive: 0.108 | inactive: -0.041 | inactive: 0.002 | inactive: 0.027 | – | inactive: -0.065 | – | inactive: -0.072 | inactive: -0.218 | inactive: -0.058 | inactive: -0.071 | inactive: -0.318 | inactive: 0.082 | inactive: 0.019 | inactive: 0.213 | inactive: -0.046

Quoted from above (2 entries):
Row | Target | log2 fold change [1] | log2 fold change (crizotinib) | log2 fold change [2] | log2 fold change [3] | log2 fold change (duvelisib) | log2 fold change (gandotinib) | log2 fold change (tozasertib) | log2 fold change [4] | log2 fold change (doramapimod) | log2 fold change (ispinesib) | log2 fold change (bafetinib) | log2 fold change [5] | log2 fold change (nilotinib) | log2 fold change [6] | log2 fold change (dasatinib) | log2 fold change [7] | log2 fold change [8] | log2 fold change [9] | log2 fold change (tipifarnib) | log2 fold change (mubritinib)
2 | HAGHL (UniProt Q6PII5) | inactive: -0.103 | inactive: -0.124 | inactive: 0.07 | inactive: 0.021 | inactive: 0.028 | – | inactive: 0.054 | inactive: 0.078 | inactive: 0.073 | inactive: -0.014 | inactive: -0.204 | – | – | – | inactive: 0.116 | – | inactive: -0.012 | inactive: -0.104 | inactive: 0.02 | inactive: 0.017
3 | HBZ (UniProt P02008) | inactive: 0.017 | inactive: 0.09 | inactive: 0.174 | inactive: -0.067 | – | inactive: 0.084 | – | inactive: 0.014 | inactive: -0.005 | inactive: 0.21 | inactive: -0.013 | inactive: 0.037 | inactive: 0.018 | inactive: 0.011 | inactive: 0.073 | inactive: -0.008 | inactive: 0.137 | inactive: 0.282 | inactive: -0.183 | inactive: 0.049
